Patent US11331295B2, “High-dose statins for age-related macular degeneration” (MASSACHUSETTS EYE AND EAR INFIRMARY, priority 2015, dated 2022)

System: patients with AMD with many large, soft drusen/drusenoid PEDs
Details: 23 patients, ~30 person-years of follow-up; 14% expected by risk calculator
Experimental: A case report and pilot multi-center prospective interventional study were conducted with IRB approval. Inclusion criteria were patients over the age of 50 with diagnosis of AMD and the presence of many large, soft drusen/drusenoid PEDs in both eyes. […] Pseudophakia was not a reason for exclusion, unless accompanied by significant posterior capsular opacity.

## CC(C)c1c(C(=O)Nc2ccccc2)c(-c2ccccc2)c(-c2ccc(F)cc2)n1CC[C@@H](O)C[C@@H](O)CC(=O)O [atorvastatin]
  patients converted/progressed to neovascular (wet) AMD: None and none
